The results in this text go back to the supplement of paper PMC8426693.

Some of the results follow. Single values are uncertain, as repeats are few or missing.

The first experiment has as its system SARS-CoV-2 3_s2m RNA. In words: waterLOGSY factor (bound vs free ligand) (ratio); higher = stronger binding. As to conditions: RNA concentration 10 µM; fragment concentration 200 µM; 293 K.
Consider `NC(=O)c1cc(N2CCCC2)ccn1`, for which the waterLOGSY factor was determined as 2.88.
Turning to `Cc1nccc(N2CCC(N)CC2)n1`, the waterLOGSY factor was found to be 2.68.
With `CCNC1CCN(c2ccncc2)CC1`, the waterLOGSY factor turned out to be 1.46.
For the compound `Cc1cccc(NC(=O)Nc2nc(C)cs2)c1`, the waterLOGSY factor was found to be 4.57.
As for `OCc1cn(-c2ccc(Cl)c(Cl)c2)nn1`, the waterLOGSY factor was 2.86.
`CC(=O)c1ccc(NC(=O)CN2CCCC2)cc1`: the waterLOGSY factor stood at 0.485.

For a further experiment, the system named is SARS-CoV-2 5'-UTR RNA. The experiment is described as above. As to conditions: RNA concentration 10 µM; fragment concentration 200 µM; 293 K.
`Cc1sc2ncnc(N(C)C)c2c1C`: the waterLOGSY factor came to 3.07.
In the case of `NC(=O)c1cc(N2CCCC2)ccn1`, the waterLOGSY factor is 3.47.
In the case of `Cc1nccc(N2CCC(N)CC2)n1`, the waterLOGSY factor came to 2.52.
Take `N#Cc1ccc(NC(=O)c2cccs2)cc1`: the waterLOGSY factor stood at 8.77.
In the case of `c1coc(CNc2nc3ccccc3[nH]2)c1`, the waterLOGSY factor came to 3.78.
On the same count and under the same terms, the same measure for `Cc1occc1C(=O)Nc1ccncc1`: 3.53; for `Nc1nccc(-c2ccc(Cl)cc2)n1`: 2.23.
On to `COc1ccc2sc(N)nc2c1`, for which the waterLOGSY factor came to 1.95.
On the same count and under the same terms, the same measure for `OCc1cn(-c2ccc(Cl)c(Cl)c2)nn1`: 4.69.
Consider `CNCC(=O)Nc1cc(C)ccn1`, for which the waterLOGSY factor stood at 2.77.
On the same count and under the same terms, with `CC(=O)c1ccc(NC(=O)CN2CCCC2)cc1` the figure was 1.22.
In the case of `O=C(Nc1ccc2[nH]c(=O)[nH]c2c1)c1ccco1`, the waterLOGSY factor stood at 3.02.
Same read-out and setting: the same measure for `COc1ccc(Nc2ncnc3[nH]cnc23)cc1`: 1.78; for `Oc1ccc(CN2CCCC2)c2cccnc12`: 1.15.
On the same count and under the same terms, the same measure for `CNC(=O)c1ccccc1NC(=O)c1ccco1`: 5.59; for `O=C(Nc1ccc(O)cc1)c1ccc(Cl)cc1`: 3.94; for `c1cc(-c2ccc3c(c2)OCO3)n[nH]1`: 2.77.
As to `O=C(Nc1ccc2ncccc2c1)c1ccccc1`, the waterLOGSY factor came to 1.99.

The next experiment deals with SARS-CoV-2 5_SL1 RNA. The description is as above. As to conditions: RNA concentration 10 µM; fragment concentration 200 µM; 293 K.
Consider `CCNC1CCN(c2ccncc2)CC1`, for which the waterLOGSY factor came to 0.841.
Turning to `Cc1occc1C(=O)Nc1ccncc1`, the waterLOGSY factor was 0.68.
Same read-out and setting: the same measure for `OCc1cn(-c2ccc(Cl)c(Cl)c2)nn1`: 1.43; for `CC(=O)c1ccc(NC(=O)CN2CCCC2)cc1`: 0.745.

The subject of the next experiment is SARS-CoV-2 5_SL1234 RNA. The experiment is described as above. As to conditions: RNA concentration 10 µM; fragment concentration 200 µM; 293 K.
On to `CN(C)c1ccc(C(=O)Nc2ccncc2)cc1`, for which the waterLOGSY factor came to 1.98.
On the same count and under the same terms, the same measure for `Cc1cccc(NC(=O)Nc2nc(C)cs2)c1`: 6.15; for `OCc1cn(-c2ccc(Cl)c(Cl)c2)nn1`: 6.13.

Another experiment relates to SARS-CoV-2 5_SL4 RNA. The description is as above. As to conditions: RNA concentration 10 µM; fragment concentration 200 µM; 293 K.
For the compound `CN(C)c1ccc(C(=O)Nc2ccncc2)cc1`, the waterLOGSY factor came out at 0.92.
Consider `NC(=O)c1cc(N2CCCC2)ccn1`, for which the waterLOGSY factor was 0.7.
`Cc1cccc(NC(=O)Nc2nc(C)cs2)c1`: the waterLOGSY factor was 2.03.
As to `OCc1cn(-c2ccc(Cl)c(Cl)c2)nn1`, the waterLOGSY factor is 2.23.
Regarding `NC(=O)c1ccnc(NC2CC=CC2)c1`, the waterLOGSY factor is 0.93.

A further experiment concerns SARS-CoV-2 5_SL5 RNA. Described as above. As to conditions: RNA concentration 10 µM; fragment concentration 200 µM; 293 K.
Take `Cc1sc2ncnc(N(C)C)c2c1C`: the waterLOGSY factor came out at 1.52.
Regarding `NC(=O)c1cc(N2CCCC2)ccn1`, the waterLOGSY factor was 0.99.
With `N#Cc1ccc(NC(=O)c2cccs2)cc1`, the waterLOGSY factor stood at 2.04.
On the same count and under the same terms, with `Cc1cccc(NC(=O)Nc2nc(C)cs2)c1` the figure was 3.8; with `Cc1occc1C(=O)Nc1ccncc1`, 1.75.
Still for that read-out and setting: the same measure for `Nc1nccc(-c2ccc(Cl)cc2)n1`: 1.72; for `COc1ccc2sc(N)nc2c1`: 1.15.
Still for that read-out and setting: with `OCc1cn(-c2ccc(Cl)c(Cl)c2)nn1` the figure was 3.69; with `NC(=O)c1ccnc(NC2CC=CC2)c1`, 1.34.
On to `CC(=O)c1ccc(NC(=O)CN2CCCC2)cc1`, for which the waterLOGSY factor came out at 1.22.
The same measure, in the same setting: with `COc1ccc(Nc2ncnc3[nH]cnc23)cc1` the figure was 1.04.
As for `CNC(=O)c1ccccc1NC(=O)c1ccco1`, the waterLOGSY factor came to 1.94.
For `c1cc(-c2ccc3c(c2)OCO3)n[nH]1`, the waterLOGSY factor turned out to be 1.61.
`O=C(Nc1ccc2ncccc2c1)c1ccccc1`: the waterLOGSY factor was found to be 1.38.

The next experiment relates to SARS-CoV-2 5_SL5b+c RNA. The description is as above. As to conditions: RNA concentration 10 µM; fragment concentration 200 µM; 293 K.
As to `CN(C)c1ccc(C(=O)Nc2ccncc2)cc1`, the waterLOGSY factor came to 0.03.
Regarding `Cc1nccc(N2CCC(N)CC2)n1`, the waterLOGSY factor was 1.04.
For `CCNC1CCN(c2ccncc2)CC1`, the waterLOGSY factor came out at 1.03.
Same read-out and setting: the same measure for `Nc1nccc(-c2ccc(Cl)cc2)n1`: 1.21; for `OCc1cn(-c2ccc(Cl)c(Cl)c2)nn1`: 3.03.
